Test results published in publication PMC10805788.
Results are given in words; binding and its absence hold for the method and conditions named. Binding seen in cells or lysates may run through a third protein. Some entries that bind do so weakly or less than the wild type. For some assays here: Tags and fused reporters may be left off the sequences shown.

Key:
[1] = biological target: T1, Rh1-TurboID fusion protein (Rh1::TbID) (Drosophila melanogaster) (UniProt P06002); test: co-sedimentation; fly heads homogenised in 50 mM Tris-HCl pH 7.5, 150 mM NaCl, 100,000 x g; soluble and membrane (1% Triton X-100) fractions blotted with anti-arrestin 2 and streptavidin-HRP; flies in blue light 4 h (arrestin 2 mainly in membranes) or then red light 5 min (mainly soluble); wild type, Rh1::TbID^wt and Rh1::TbID^ninaE
T1 sequence: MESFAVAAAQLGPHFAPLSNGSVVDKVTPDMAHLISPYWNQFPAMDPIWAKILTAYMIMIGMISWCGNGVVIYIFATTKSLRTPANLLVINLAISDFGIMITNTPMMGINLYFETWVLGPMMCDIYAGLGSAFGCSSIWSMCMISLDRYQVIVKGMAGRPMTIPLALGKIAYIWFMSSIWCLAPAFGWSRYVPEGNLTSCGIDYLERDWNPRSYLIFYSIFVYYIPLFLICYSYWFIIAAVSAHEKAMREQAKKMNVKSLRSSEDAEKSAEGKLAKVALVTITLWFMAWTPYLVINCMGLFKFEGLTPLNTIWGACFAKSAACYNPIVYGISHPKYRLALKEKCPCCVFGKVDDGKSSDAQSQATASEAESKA

[2] = biological target: T2, native rhodopsin 1 (Rh1) (Drosophila melanogaster (endogenous in fly heads)) (UniProt P06002); test: as above
T2 sequence: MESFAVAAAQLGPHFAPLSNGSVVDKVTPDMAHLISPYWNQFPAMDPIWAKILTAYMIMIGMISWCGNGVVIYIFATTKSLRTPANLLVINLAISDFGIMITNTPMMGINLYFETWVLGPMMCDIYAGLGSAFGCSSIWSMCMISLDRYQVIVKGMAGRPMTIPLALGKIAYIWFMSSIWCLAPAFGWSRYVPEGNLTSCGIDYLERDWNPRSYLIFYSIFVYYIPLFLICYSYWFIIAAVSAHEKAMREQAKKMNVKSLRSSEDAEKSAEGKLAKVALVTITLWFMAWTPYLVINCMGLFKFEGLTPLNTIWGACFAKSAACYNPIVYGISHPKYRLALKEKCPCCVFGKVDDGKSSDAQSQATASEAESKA

binding [1]: binds
binding [2]: binds
B1: arrestin 2 (protein, UniProt P19107 1-401)
chain: MVVSVKVFKKATPNGKVTFYLGRRDFIDHIDYCDPVDGVIVVEPDYLKNRKVFGQLATTYRYGREEDEVMGVKFSKELILCREQIVPMTNPNMEMTPMQEKLVRKLGSNAYPFTFHFPPNSPSSVTLQQEGDDNGKPLGVEYTIRAFVGDSEDDRQHKRSMVSLVIKKLQYAPLNRGQRLPSSLVSKGFTFSNGKISLEVTLDREIYYHGEKTAATVQVSNNSKKSVKSIKCFIVQHTEITMVNAQFSKHVAQLETKEGCPITPGANLTKTFYLIPLAANNKDRHGIALDGHLKDEDVNLASSTMVQEGKSTGDACGIVISYSVRIKLNCGTLGGEMQTDVPFKLLQPAPGTIEKKRSNAMKKMKSIEQHRNVKGYYQDDDDNIVFEDFAKMRMNNVNMAD
